Laboratory results as given in patent US12091425B2 (AMGEN INC., priority 2016, dated 2024).

By UniProt entry, the sequences of proteins in these tests, tags left out. Residues count along the entry.
UniProt Q07820, 171-327 limits assumed: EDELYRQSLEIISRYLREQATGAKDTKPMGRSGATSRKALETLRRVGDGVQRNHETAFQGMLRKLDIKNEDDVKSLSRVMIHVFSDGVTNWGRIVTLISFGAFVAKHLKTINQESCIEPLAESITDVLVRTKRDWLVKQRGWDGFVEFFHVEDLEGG

Target: Mcl-1/Bim interaction, recombinant human Mcl-1 (171-327) (Homo sapiens, UniProt Q07820)
Assay: Cell free Mcl-1: Bim Affinity Assay (Mcl-1 HTRF)
Format: binding
Settings: read-out: Mcl-1 HTRF, cell free Mcl-1:Bim TR-FRET

For `CC(C)C1CCCC[C@@H](O)[C@@H]2CC[C@H]2CN2C[C@@]3(CCCc4cc(Cl)ccc43)COc3ccc(cc32)C(=O)NS1(=O)=O` (single isomer, unassigned), the IC50 was 0.632 nM and 3.49 nM.

Some entries of the source have several records that differ or are many. The list is limited to them. There may be further records. Values given together read as repeated measurements on other runs, samples or individuals.
